Article doi:10.1101/2020.11.17.386557
No constants are given. Whether binding was seen depends on the method and setting. Some entries that bind do so weakly or less than the wild type. Where a sequence is shown, tags or fusion partners need not be part of it.

Amino acid sequences for entries named in this document (tags omitted).
UniProt P61957: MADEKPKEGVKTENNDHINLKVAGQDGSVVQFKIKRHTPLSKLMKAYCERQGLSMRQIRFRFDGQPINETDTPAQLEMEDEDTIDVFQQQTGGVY

Biological target: GST-Sumo2 fusion protein (UniProt P61957)
Experiment: pull-down

B1: Flag-tagged wild type Dcp1a, purified protein (protein, UniProt Q91YD3 1-602)
chain: MALSCSTVRPRRRGSALRSKMELLSRAEQEMSLAALKQHDPYITSIADLTGQVALYTFCPKANQWEKTDIEGTLFVYRRSASPYHGFTIVNRLNMHNLVEPVNKDLEFQLHEPFLLYRNASLSIYSIWFYDKNDCHRIAKLMADVVEEETRRSQQAARDKQSPSQANGCSDQRPIDILEMLSRAKDEYERNQMGGSNISSPGLQPSTQLSNLGSTETLEETPSGSQDKSAPSGHKHLTVEELFGTSLPKEQPTAMGLESEDTDKLLGDASQKEPSSFLPFPFEQSGGAPQSENLGIHSAAHHTVQPEVSTPVLITPASIAQSGDKHPPSYTLPLSPVLSPTLPAEAPTTQVPHLPRNSTMIQAVKTTPRQKSPLLNQPVPELSHSSLVASQSPFRAPVSLANPAGTALPSVDLLQKLRLTPQHDQIQAQPLGKGTMAPSFSSAAGQLATPESFIEPSSKTAAARAAVSASLSNMVLAPTLQSMQQNQDPEVFSQPKVLPSAIPIAGSPLVPATTTAVSSVLLSPSVFQQTVPRAADLERKASSPSPLTVGTAESQRKPSIILSKSQLQDTLIHLIKNDSSFLSTLHAVYLQVLTKNKDNHNL
For B1, the binding was “binds”.
